Assay results: the supplement of paper PMC12823440, “Inhibitors supercharge kinase turnover through native proteolytic circuits” (Nature, 2025)
Where a name gives a salt, the structure may show the parent alone. The list shows a part of the results. The calls rarely recur for the same compound in another form.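 Kinases, fused to nanoluciferase, were expressed in K562 cells; luminescence was measured every 4 h from 2 to 18 h as percent of control (DMSO = 100%, positive control = 0%). A time point is decreased if signal falls significantly (2 sigma). Hits were called by the authors by a rule that is not shown; the count of time points alone does not decide it.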

Amino acid sequences for entries named in this document (tags omitted). A change or cut given only in a name is not applied to a line headed by its entry.
UniProt P42356, whole entry, looked up: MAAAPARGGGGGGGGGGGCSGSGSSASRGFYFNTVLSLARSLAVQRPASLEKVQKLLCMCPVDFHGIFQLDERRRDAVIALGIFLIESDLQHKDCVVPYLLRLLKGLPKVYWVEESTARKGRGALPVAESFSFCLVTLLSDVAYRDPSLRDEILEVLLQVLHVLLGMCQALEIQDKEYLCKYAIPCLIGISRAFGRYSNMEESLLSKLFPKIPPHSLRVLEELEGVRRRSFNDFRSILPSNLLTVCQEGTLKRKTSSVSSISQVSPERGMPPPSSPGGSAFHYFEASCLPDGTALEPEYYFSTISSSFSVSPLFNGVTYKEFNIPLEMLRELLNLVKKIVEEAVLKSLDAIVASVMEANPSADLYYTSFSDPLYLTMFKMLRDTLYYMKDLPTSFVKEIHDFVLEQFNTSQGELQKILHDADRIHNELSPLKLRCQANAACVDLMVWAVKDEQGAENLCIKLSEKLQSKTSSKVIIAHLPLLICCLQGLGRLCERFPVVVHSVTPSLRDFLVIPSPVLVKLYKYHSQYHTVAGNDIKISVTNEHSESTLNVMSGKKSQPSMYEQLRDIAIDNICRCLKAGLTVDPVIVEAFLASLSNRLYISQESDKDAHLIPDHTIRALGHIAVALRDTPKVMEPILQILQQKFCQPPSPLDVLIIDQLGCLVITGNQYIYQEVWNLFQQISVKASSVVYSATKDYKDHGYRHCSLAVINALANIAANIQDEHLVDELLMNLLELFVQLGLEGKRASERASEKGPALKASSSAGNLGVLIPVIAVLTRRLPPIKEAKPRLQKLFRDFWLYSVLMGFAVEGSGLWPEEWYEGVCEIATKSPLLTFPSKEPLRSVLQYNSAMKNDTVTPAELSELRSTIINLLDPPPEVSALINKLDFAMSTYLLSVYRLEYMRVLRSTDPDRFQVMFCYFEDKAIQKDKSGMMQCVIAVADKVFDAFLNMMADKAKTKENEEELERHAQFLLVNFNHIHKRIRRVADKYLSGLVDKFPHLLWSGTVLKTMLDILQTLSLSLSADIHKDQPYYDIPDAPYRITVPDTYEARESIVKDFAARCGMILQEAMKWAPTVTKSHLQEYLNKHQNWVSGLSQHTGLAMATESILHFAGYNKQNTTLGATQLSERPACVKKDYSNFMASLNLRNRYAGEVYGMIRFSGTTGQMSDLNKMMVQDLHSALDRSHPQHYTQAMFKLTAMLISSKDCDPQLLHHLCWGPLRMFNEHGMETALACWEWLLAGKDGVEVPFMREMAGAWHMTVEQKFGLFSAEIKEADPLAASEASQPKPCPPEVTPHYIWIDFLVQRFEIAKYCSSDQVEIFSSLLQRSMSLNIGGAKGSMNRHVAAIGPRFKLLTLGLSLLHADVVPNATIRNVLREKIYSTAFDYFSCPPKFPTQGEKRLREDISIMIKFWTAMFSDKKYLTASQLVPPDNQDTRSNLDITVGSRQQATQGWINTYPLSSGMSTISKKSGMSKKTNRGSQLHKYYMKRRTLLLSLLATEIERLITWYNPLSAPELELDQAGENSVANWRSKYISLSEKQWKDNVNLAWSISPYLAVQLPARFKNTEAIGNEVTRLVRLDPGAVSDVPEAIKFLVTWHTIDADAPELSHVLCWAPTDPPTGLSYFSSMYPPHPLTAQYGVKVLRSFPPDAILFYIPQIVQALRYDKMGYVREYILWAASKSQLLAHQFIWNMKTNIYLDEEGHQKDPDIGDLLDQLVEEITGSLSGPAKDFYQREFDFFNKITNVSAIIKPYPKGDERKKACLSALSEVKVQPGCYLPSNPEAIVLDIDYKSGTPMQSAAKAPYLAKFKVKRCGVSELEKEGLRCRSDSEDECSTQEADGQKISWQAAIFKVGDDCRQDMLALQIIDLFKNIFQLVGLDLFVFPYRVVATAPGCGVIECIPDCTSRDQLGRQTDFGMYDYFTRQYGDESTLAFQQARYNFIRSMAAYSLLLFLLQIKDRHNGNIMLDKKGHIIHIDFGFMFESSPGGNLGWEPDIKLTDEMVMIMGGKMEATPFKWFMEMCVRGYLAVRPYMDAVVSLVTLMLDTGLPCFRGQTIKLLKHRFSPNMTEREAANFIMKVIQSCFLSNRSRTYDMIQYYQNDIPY
UniProt Q9UBF8: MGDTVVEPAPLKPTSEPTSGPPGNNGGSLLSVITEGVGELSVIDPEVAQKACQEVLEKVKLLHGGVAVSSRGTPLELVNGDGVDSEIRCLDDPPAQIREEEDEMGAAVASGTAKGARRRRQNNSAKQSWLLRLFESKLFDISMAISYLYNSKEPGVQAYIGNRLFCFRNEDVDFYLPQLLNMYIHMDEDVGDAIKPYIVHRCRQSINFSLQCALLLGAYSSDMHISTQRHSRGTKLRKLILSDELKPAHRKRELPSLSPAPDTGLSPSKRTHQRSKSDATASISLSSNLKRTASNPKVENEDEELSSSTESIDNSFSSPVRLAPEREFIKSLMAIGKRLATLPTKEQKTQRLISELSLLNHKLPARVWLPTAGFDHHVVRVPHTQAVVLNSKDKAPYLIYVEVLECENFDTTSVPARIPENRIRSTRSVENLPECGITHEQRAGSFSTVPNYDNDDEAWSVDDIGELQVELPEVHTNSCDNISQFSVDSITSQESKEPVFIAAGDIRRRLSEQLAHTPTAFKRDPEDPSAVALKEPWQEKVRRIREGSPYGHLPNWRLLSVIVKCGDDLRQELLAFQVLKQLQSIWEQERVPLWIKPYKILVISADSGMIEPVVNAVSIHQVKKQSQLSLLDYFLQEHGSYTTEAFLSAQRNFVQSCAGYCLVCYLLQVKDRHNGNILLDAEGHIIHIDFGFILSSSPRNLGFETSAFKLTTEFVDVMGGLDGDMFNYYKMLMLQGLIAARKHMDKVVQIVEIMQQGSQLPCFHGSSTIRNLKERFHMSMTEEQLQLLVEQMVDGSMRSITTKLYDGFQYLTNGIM
UniProt P53350, whole entry: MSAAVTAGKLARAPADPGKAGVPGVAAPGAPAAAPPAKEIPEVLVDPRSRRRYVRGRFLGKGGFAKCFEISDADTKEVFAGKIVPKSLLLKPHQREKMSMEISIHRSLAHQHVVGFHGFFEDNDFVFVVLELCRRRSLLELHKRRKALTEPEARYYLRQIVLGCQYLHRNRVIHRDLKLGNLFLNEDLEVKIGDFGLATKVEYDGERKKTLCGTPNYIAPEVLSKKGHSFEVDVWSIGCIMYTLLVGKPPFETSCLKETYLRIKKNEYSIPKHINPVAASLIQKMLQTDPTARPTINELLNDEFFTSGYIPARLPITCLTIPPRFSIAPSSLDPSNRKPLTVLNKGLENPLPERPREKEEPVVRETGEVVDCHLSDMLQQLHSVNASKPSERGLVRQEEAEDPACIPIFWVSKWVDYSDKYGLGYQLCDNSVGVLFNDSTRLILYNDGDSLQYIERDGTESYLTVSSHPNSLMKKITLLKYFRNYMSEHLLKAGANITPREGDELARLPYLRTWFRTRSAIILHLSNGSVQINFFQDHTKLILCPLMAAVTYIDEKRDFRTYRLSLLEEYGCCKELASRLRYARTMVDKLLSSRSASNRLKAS
UniProt Q05397, whole entry, looked up: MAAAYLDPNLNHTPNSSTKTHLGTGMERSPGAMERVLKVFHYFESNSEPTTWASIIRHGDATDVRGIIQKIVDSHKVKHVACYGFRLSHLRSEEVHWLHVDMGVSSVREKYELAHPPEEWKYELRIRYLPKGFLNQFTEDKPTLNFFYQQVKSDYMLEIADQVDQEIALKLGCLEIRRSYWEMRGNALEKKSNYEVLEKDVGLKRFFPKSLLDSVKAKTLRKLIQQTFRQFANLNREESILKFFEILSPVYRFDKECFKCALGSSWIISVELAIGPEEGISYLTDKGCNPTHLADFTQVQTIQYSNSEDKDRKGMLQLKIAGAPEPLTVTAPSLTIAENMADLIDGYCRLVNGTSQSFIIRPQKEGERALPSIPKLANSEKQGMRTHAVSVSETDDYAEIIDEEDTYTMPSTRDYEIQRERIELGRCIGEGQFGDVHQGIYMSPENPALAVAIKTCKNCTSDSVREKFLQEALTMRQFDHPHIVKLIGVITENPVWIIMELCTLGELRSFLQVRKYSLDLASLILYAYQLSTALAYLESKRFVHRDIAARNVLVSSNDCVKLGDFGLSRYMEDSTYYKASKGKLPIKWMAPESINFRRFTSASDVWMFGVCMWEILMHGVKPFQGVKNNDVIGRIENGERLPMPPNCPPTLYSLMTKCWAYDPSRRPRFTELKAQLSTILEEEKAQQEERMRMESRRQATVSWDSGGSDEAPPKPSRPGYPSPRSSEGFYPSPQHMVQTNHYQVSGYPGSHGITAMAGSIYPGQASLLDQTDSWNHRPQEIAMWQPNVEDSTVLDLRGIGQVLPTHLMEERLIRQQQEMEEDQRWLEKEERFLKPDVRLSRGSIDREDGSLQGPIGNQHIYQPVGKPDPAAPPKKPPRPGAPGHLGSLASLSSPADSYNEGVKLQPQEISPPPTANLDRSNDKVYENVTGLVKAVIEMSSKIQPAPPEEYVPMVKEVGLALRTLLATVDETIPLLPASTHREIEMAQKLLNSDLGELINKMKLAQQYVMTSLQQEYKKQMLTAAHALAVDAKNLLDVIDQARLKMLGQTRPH
UniProt Q14289, whole entry, looked up: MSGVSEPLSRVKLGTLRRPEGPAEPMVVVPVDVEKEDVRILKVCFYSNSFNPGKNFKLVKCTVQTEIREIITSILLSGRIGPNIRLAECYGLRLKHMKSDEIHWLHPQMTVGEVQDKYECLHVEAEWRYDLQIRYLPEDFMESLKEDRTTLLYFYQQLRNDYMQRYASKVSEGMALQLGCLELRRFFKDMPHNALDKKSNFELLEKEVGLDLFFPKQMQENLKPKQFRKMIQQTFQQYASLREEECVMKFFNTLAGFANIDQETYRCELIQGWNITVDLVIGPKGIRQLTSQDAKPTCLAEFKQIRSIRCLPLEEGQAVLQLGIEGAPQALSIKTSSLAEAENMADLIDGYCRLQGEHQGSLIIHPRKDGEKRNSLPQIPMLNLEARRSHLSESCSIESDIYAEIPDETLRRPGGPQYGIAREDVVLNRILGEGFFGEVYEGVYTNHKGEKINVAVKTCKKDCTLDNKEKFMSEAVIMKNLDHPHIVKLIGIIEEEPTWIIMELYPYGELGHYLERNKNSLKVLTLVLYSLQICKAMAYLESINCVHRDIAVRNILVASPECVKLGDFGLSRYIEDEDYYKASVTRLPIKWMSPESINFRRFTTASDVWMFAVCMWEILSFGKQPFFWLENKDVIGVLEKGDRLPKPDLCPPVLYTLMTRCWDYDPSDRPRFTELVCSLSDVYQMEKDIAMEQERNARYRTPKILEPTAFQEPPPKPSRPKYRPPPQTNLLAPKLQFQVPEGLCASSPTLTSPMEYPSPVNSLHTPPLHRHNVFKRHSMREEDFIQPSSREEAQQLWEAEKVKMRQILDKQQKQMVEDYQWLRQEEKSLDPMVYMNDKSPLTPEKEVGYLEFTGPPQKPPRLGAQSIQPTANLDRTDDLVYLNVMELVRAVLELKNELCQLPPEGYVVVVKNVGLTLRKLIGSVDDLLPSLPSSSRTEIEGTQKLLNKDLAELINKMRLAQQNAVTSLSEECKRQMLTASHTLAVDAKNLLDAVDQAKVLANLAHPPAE

Experiments:
Experiment in all cases: kinase-Nluc reporter destabilization hit call (1 = scored as downregulated) (binary); higher = compound decreases kinase abundance
Conditions in all cases: K562; 2-18 h
PDPK1 = PDPK1 (UniProt O15530)
PIK4CA = PIK4CA (UniProt P42356)
PIK4CB = PIK4CB (UniProt Q9UBF8)
PLK1 = PLK1 (UniProt P53350)
PRKAA1 = PRKAA1 (UniProt Q13131)
PRKCA = PRKCA (UniProt P17252)
PTK2 = PTK2 (UniProt Q05397)
PTK2B = PTK2B (UniProt Q14289)
RAF1 = RAF1 (UniProt P04049)
[1] = biological target: RAF1_S257L (clone: RAF1_mut) (UniProt P04049)

Measured: kinase-Nluc reporter destabilization hit call

Nc1ncnc2c1c(-c1ccc(Oc3ccccc3)cc1)nn2C1CCCC1 (2.5 µM)
inactive: PDPK1 = 0 | PIK4CA 0 | PIK4CB 0 | PLK1 = 0 | PRKAA1 = 0 | PRKCA 0 | PTK2 = 0 | PTK2B 0 | RAF1 = 0 | [1] 0

COc1ccc(-c2ccc3c(N4CCOCC4)nc(N4C[C@@H](C)O[C@@H](C)C4)nc3n2)cc1CO (2.5 µM)
inactive: PDPK1 = 0 | PIK4CA 0 | PIK4CB 0 | PLK1 = 0 | PRKAA1 = 0 | PRKCA 0 | PTK2 = 0 | PTK2B 0 | RAF1 = 0 | [1] 0

C=CC(=O)Nc1cc(Nc2ncc(Cl)c(-c3c[nH]c4ccccc34)n2)c(OC)cc1N(C)CCN(C)C [Mutant EGFR inhibitor] (2.5 µM)
inactive: PDPK1 = 0 | PIK4CA 0 | PIK4CB 0 | PLK1 = 0 | PRKAA1 = 0 | PRKCA 0 | PTK2 = 0 | PTK2B 0 | RAF1 = 0 | [1] 0

Cc1nc2sccn2c(=O)c1CCN1CCC(=C(c2ccccc2)c2ccc(F)cc2)CC1 (10 µM)
inactive: PDPK1 = 0 | PIK4CA 0 | PIK4CB 0 | PLK1 = 0 | PRKAA1 = 0 | PRKCA 0 | PTK2 = 0 | PTK2B 0 | RAF1 = 0 | [1] 0

CCN1CCC(n2cc(CNc3cc(Cl)c4ncc(C#N)c(Nc5ccc(F)c(Cl)c5)c4c3)nn2)CC1 [Cot inhibitor-2] (2.5 µM)
inactive: PDPK1 = 0 | PIK4CA 0 | PIK4CB 0 | PLK1 = 0 | PRKAA1 = 0 | PRKCA 0 | PTK2 = 0 | PTK2B 0 | RAF1 = 0 | [1] 0

COc1cc(OC2CCN(C)CC2)ccc1Nc1ncc2c(n1)n(C1CCCC1)c(=O)n2C (10 µM)
inactive: PDPK1 = 0 | PIK4CA 0 | PIK4CB 0 | PLK1 = 0 | PRKAA1 = 0 | PRKCA 0 | PTK2 = 0 | PTK2B 0 | RAF1 = 0 | [1] 0

COc1ccccc1-c1cc(Nc2cccc(CS(N)(=O)=O)c2)ncn1 (10 µM)
inactive: PDPK1 = 0 | PIK4CA 0 | PIK4CB 0 | PLK1 = 0 | PRKAA1 = 0 | PRKCA 0 | PTK2 = 0 | PTK2B 0 | RAF1 = 0 | [1] 0

COc1cc2nccc(Oc3ccc(NC(=O)NC4CC4)c(Cl)c3)c2cc1C(N)=O [Lenvatinib (mesylate)] (10 µM)
inactive: PDPK1 = 0 | PIK4CA 0 | PIK4CB 0 | PLK1 = 0 | PRKAA1 = 0 | PRKCA 0 | PTK2 = 0 | PTK2B 0 | RAF1 = 0 | [1] 0

Nc1ccc(-c2cnc(N)c(-c3ccc(Cl)cc3)c2)cn1 (10 µM)
inactive: PDPK1 = 0 | PIK4CA 0 | PIK4CB 0 | PLK1 = 0 | PRKAA1 = 0 | PRKCA 0 | PTK2 = 0 | PTK2B 0 | RAF1 = 0 | [1] 0

CC(C)(C)c1nc(-c2cccc(NS(=O)(=O)c3c(F)cccc3F)c2F)c(-c2ccnc(N)n2)s1 [Dabrafenib] (2.5 µM)
inactive: PDPK1 = 0 | PIK4CA 0 | PIK4CB 0 | PLK1 = 0 | PRKAA1 = 0 | PRKCA 0 | PTK2 = 0 | PTK2B 0 | RAF1 = 0 | [1] 0

CC1=C(C(=O)O)N2C(=O)[C@@H](NC(=O)[C@H](N)C3=CCC=CC3)[C@H]2SC1 [Cephradine] (10 µM)
inactive: PDPK1 = 0 | PIK4CA 0 | PIK4CB 0 | PLK1 = 0 | PRKAA1 = 0 | PRKCA 0 | PTK2 = 0 | PTK2B 0 | RAF1 = 0 | [1] 0

CN(CC(=O)N(Cc1ccc(C2CCCCC2)cc1)c1ccc(C(=O)NO)cc1)S(=O)(=O)c1c(F)c(F)c(F)c(F)c1F (2.5 µM)
inactive: PDPK1 = 0 | PIK4CA 0 | PIK4CB 0 | PLK1 = 0 | PRKAA1 = 0 | PRKCA 0 | PTK2 = 0 | PTK2B 0 | RAF1 = 0 | [1] 0

C=CC(=O)Nc1cccc(Nc2nc(Nc3ccc(N4CCN(C(C)=O)CC4)cc3OC)ncc2C(F)(F)F)c1 [Rociletinib hydrobromide] (10 µM)
inactive: PDPK1 = 0 | PIK4CA 0 | PIK4CB 0 | PLK1 = 0 | PRKAA1 = 0 | PRKCA 0 | PTK2 = 0 | PTK2B 0 | RAF1 = 0 | [1] 0

CCN1CCN(Cc2ccc(Nc3ncc(F)c(-c4cc(F)c5nc(C)n(C(C)C)c5c4)n3)nc2)CC1 [Abemaciclib] (2 µM)
inactive: PDPK1 = 0 | PIK4CA 0 | PIK4CB 0 | PLK1 = 0 | PRKAA1 = 0 | PRKCA 0 | PTK2 = 0 | PTK2B 0 | RAF1 = 0 | [1] 0

Cc1cccc(Oc2cnc(=O)[nH]c2)c1 [Tolimidone] (10 µM)
inactive: PDPK1 = 0 | PIK4CA 0 | PIK4CB 0 | PLK1 = 0 | PRKAA1 = 0 | PRKCA 0 | PTK2 = 0 | PTK2B 0 | RAF1 = 0 | [1] 0

Cc1ccc2cc(-c3c(C)ccc(C(=O)c4c(-c5ccccc5)n(C)n(-c5ccccc5)c4=O)c3N)ccc2n1 (2.5 µM)
inactive: PDPK1 = 0 | PIK4CA 0 | PIK4CB 0 | PLK1 = 0 | PRKAA1 = 0 | PRKCA 0 | PTK2 = 0 | PTK2B 0 | RAF1 = 0 | [1] 0

c1cncc(CN2CCC(n3ncc4c(N5CCOCC5)nc(-c5ccc6[nH]ccc6c5)nc43)CC2)c1 (10 µM)
inactive: PDPK1 = 0 | PIK4CA 0 | PIK4CB 0 | PLK1 = 0 | PRKAA1 = 0 | PRKCA 0 | PTK2 = 0 | PTK2B 0 | RAF1 = 0 | [1] 0

O=C(NCCN1CCCC1)c1cc(-c2ccc(CN3CCOCC3)cc2)nc2ccc(F)cc12 (10 µM)
inactive: PDPK1 = 0 | PIK4CA 0 | PIK4CB 0 | PLK1 = 0 | PRKAA1 = 0 | PRKCA 0 | PTK2 = 0 | PTK2B 0 | RAF1 = 0 | [1] 0

C[C@@H](c1ccc(-c2ccccc2)c(F)c1)c1cc(NC(=N)N2CCOCC2)on1 [Rimacalib] (10 µM)
inactive: PDPK1 = 0 | PIK4CA 0 | PIK4CB 0 | PLK1 = 0 | PRKAA1 = 0 | PRKCA 0 | PTK2 = 0 | PTK2B 0 | RAF1 = 0 | [1] 0

C=C1C(=O)O[C@H]2C[C@H](C)C(/C=C/C(C)=O)=CC[C@H]12 [Xanthatin] (2.5 µM)
inactive: PDPK1 = 0 | PIK4CA 0 | PIK4CB 0 | PLK1 = 0 | PRKAA1 = 0 | PRKCA 0 | PTK2 = 0 | PTK2B 0 | RAF1 = 0 | [1] 0

O=C1Nc2ccc(C(=O)c3ccco3)cc2C1=Cc1cc(Cl)c(O)c(Cl)c1 (2.5 µM)
active: PLK1 = 1 | PRKCA 1
inactive: PDPK1 = 0 | PIK4CA 0 | PIK4CB 0 | PRKAA1 = 0 | PTK2 = 0 | PTK2B 0 | RAF1 = 0 | [1] 0

C[C@@H]1COCCN1c1cc(C2([S@@](C)(=N)=O)CC2)nc(-c2ccnc3[nH]ccc23)n1 [(S)-Ceralasertib] (10 µM)
inactive: PDPK1 = 0 | PIK4CA 0 | PIK4CB 0 | PLK1 = 0 | PRKAA1 = 0 | PRKCA 0 | PTK2 = 0 | PTK2B 0 | RAF1 = 0 | [1] 0

CCc1cc2c(cc1N1CCC(N3CCOCC3)CC1)C(C)(C)c1[nH]c3cc(C#N)ccc3c1C2=O [Alectinib] (10 µM)
inactive: PDPK1 = 0 | PIK4CA 0 | PIK4CB 0 | PLK1 = 0 | PRKAA1 = 0 | PRKCA 0 | PTK2 = 0 | PTK2B 0 | RAF1 = 0 | [1] 0

Cc1cc(=O)oc2c(C=O)c(O)ccc12 (10 µM)
inactive: PDPK1 = 0 | PIK4CA 0 | PIK4CB 0 | PLK1 = 0 | PRKAA1 = 0 | PRKCA 0 | PTK2 = 0 | PTK2B 0 | RAF1 = 0 | [1] 0

FC(F)(F)c1ccc(CNc2ccc(Cc3c[nH]c4ncccc34)cn2)cc1 (10 µM)
inactive: PDPK1 = 0 | PIK4CA 0 | PIK4CB 0 | PLK1 = 0 | PRKAA1 = 0 | PRKCA 0 | PTK2 = 0 | PTK2B 0 | RAF1 = 0 | [1] 0

COc1cccc(OC)c1C(=O)OCc1cc(O)ccc1O[C@@H]1O[C@H](CO)[C@@H](O)[C@H](O)[C@H]1O [Curculigoside] (10 µM)
inactive: PDPK1 = 0 | PIK4CA 0 | PIK4CB 0 | PLK1 = 0 | PRKAA1 = 0 | PRKCA 0 | PTK2 = 0 | PTK2B 0 | RAF1 = 0 | [1] 0

CN1C(=O)N[C@H](Cc2c[nH]c3c(Cl)cccc23)C1=O [Necrostatin 2] (10 µM)
inactive: PDPK1 = 0 | PIK4CA 0 | PIK4CB 0 | PLK1 = 0 | PRKAA1 = 0 | PRKCA 0 | PTK2 = 0 | PTK2B 0 | RAF1 = 0 | [1] 0

Arranged by count of non-hydrogen atoms (ascending): part of the list above.
Cc1cc(=O)oc2c(C=O)c(O)ccc12 (10 µM)
inactive: PDPK1 = 0 | PIK4CA 0 | PIK4CB 0 | PLK1 = 0 | PRKAA1 = 0 | PRKCA 0 | PTK2 = 0 | PTK2B 0 | RAF1 = 0 | [1] 0

CN1C(=O)N[C@H](Cc2c[nH]c3c(Cl)cccc23)C1=O [Necrostatin 2] (10 µM)
inactive: PDPK1 = 0 | PIK4CA 0 | PIK4CB 0 | PLK1 = 0 | PRKAA1 = 0 | PRKCA 0 | PTK2 = 0 | PTK2B 0 | RAF1 = 0 | [1] 0

FC(F)(F)c1ccc(CNc2ccc(Cc3c[nH]c4ncccc34)cn2)cc1 (10 µM)
inactive: PDPK1 = 0 | PIK4CA 0 | PIK4CB 0 | PLK1 = 0 | PRKAA1 = 0 | PRKCA 0 | PTK2 = 0 | PTK2B 0 | RAF1 = 0 | [1] 0

C[C@@H]1COCCN1c1cc(C2([S@@](C)(=N)=O)CC2)nc(-c2ccnc3[nH]ccc23)n1 [(S)-Ceralasertib] (10 µM)
inactive: PDPK1 = 0 | PIK4CA 0 | PIK4CB 0 | PLK1 = 0 | PRKAA1 = 0 | PRKCA 0 | PTK2 = 0 | PTK2B 0 | RAF1 = 0 | [1] 0

COc1cccc(OC)c1C(=O)OCc1cc(O)ccc1O[C@@H]1O[C@H](CO)[C@@H](O)[C@H](O)[C@H]1O [Curculigoside] (10 µM)
inactive: PDPK1 = 0 | PIK4CA 0 | PIK4CB 0 | PLK1 = 0 | PRKAA1 = 0 | PRKCA 0 | PTK2 = 0 | PTK2B 0 | RAF1 = 0 | [1] 0

Going on with the list:

CNC(=O)c1ccc(C)c(-n2c(C)cc(OCc3ccc(F)cc3F)c(Br)c2=O)c1 (10 µM)
inactive: PDPK1 = 0 | PIK4CA 0 | PIK4CB 0 | PLK1 = 0 | PRKAA1 = 0 | PRKCA 0 | PTK2 = 0 | PTK2B 0 | RAF1 = 0 | [1] 0
